According to PMC5474747:
Results are given in words; binding and its absence hold for the method and conditions named. Binding seen in cells or lysates may run through a third protein. Where a sequence is shown, tags or fusion partners need not be part of it.

Target: T1, WT Mdm30-Myc (S. cerevisiae) (UniProt Q05930)
T1 sequence: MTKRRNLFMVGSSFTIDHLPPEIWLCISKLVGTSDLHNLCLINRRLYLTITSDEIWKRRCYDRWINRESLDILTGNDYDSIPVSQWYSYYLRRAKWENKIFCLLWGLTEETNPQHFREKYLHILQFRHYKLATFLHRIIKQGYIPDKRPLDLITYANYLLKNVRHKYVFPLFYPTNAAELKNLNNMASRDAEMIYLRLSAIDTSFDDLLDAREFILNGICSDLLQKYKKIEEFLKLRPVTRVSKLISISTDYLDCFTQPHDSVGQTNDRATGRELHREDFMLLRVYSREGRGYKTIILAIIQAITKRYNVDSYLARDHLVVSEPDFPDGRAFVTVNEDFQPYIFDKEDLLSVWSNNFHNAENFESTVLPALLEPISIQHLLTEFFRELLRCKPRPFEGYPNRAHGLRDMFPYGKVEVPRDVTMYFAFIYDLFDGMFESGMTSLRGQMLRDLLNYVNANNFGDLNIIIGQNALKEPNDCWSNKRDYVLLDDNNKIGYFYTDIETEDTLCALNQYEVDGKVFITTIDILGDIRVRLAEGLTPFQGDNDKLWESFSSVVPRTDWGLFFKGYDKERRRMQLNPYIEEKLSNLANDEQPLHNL
Assay: co-IP; lysates of ubp2Δ mdm30Δ yeast co-expressing Ubp2-HA and Mdm30-Myc (WT or F-box mutant); anti-Myc (9E10) or mock on protein G-Sepharose, 2 h at 4 °C; IP buffer 100 mM Tris pH 7.5, 100 mM NaCl, 0.6% Triton X-100, 10% glycerol; anti-HA immunoblot; also done in the presence or absence of Rup1

- binding: no binding
B1: Ubp2 tagged with six HA C-terminal epitopes (Ubp2-HA) (enzyme, UniProt Q01476 1-1272)
chain: MPNEDNELQKAIENHHNQLLNQDKENADRNGSVIEDLPLYGTSINQQSTPGDVDDGKHLLYPDIATNLPLKTSDRLLDDILCDTIFLNSTDPKVMQKGLQSRGILKESMLSYSTFRSSIRPNCLGSLTDQVVFQTKSEYDSISCPKYNKIHVFQAVIFNPSLAEQQISTFDDIVKIPIYHLKVSVKVRQELERLKKHVGVTQFHSLDHLHEYDRVDLSTFDSSDPNLLDYGIYVSDDTNKLILIEIFKPEFNSPEEHESFTADAIKKRYNAMCVKNESLDKSETPSQVDCFYTLFKIFKGPLTRKSKAEPTKTIDSGNLALNTHLNPEWLTSKYGFQASSEIDEETNEIFTEYVPPDMVDYVNDLETRKIRESFVRKCLQLIFWGQLSTSLLAPNSPLKNTKSVKGMSSLQTSFSTLPWFHLLGESRARILLNSNEQTHSPLDAEPHFINLSVSHYYTDRDIIRNYESLSSLDPENIGLYFDALTYIANRKGAYQLIAYCGKQDIIGQEALENALLMFKINPKECNISELNEATLLSIYKYETSNKSQVTSNHLTNLKNALRLLAKYTKSDKLKFYVDHEPYRALSQAYDTLSIDESVDEDIIKTAYSVKINDSPGLKLDCDRALYTIAISKRSLDLFNFLTEECPQFSNYYGPEKLDYQEALKLLQVNENASDETILKIFKQKWFDENVYEPDQFLILRAALTKISIERNSTLITNFLLTGTIDPNSLPPENWPTGINNIGNTCYLNSLLQYYFSIAPLRRYVLEYQKTVENFNDHLSNSGHIRRIGGREISRGEVERSIQFIYQLRNLFYAMVHTRERCVTPSKELAYLAFAPSNVEVEFEVEGNKVVDQTGVLSDSKKETTDDAFTTKIKDTSLIDLEMEDGLNGDVGTDANRKKNESNDAEVSENEDTTGLTSPTRVAKISSDQLENALEMGRQQDVTECIGNVLFQIESGSEPIRYDEDNEQYDLVKQLFYGTTKQSIVPLSATNKVRTKVERFLSLLINIGDHPKDIYDAFDSYFKDEYLTMEEYGDVIRTVAVTTFPTILQVQIQRVYYDRERLMPFKSIEPLPFKEVIYMDRYADTENPLLLAKKKETEEMKQKLKVMKNRQRELLSRDDSGLTRKDAFLESIKLLESDTIKKTPLKIEAANDVIKTLRNNVQNIDNELMKLYNDINSLEEKISHQFDDFKEYGYSLFSVFIHRGEASYGHYWIYIKDRNRNGIWRKYNDETISEVQEEEVFNFNEGNTATPYFLVYVKQGQEGDIEPLKRILK
